Results are given in words; binding and its absence hold for the method and conditions named. In cells and extracts the contact can be indirect. Some results given as binding are weak or reduced against the parent protein; the word gives no strength. Where a sequence is shown, tags or fusion partners need not be part of it.

Consider one molecule from article PMC5701936.

Test [1] deals with T1, LIP5-YFPC (Arabidopsis thaliana) (UniProt Q9SZ15).
T1 sequence: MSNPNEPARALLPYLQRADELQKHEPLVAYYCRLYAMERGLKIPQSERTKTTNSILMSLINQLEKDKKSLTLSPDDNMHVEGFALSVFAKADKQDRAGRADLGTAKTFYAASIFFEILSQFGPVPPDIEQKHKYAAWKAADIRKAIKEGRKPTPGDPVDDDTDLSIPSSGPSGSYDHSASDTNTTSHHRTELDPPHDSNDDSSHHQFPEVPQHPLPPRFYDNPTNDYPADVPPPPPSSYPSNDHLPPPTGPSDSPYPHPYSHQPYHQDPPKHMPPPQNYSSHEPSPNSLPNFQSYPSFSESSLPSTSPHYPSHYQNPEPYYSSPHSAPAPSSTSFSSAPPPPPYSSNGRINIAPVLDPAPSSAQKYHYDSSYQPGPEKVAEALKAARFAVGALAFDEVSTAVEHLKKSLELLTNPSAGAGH
Nature of the test: split reporter; BiFC with YFPN and YFPC fusions in transfected N. benthamiana leaf epidermis cells, confocal microscopy.

The target in the next test is T2, TTG1-YFPC (UniProt Q9XGN1).
T2 sequence: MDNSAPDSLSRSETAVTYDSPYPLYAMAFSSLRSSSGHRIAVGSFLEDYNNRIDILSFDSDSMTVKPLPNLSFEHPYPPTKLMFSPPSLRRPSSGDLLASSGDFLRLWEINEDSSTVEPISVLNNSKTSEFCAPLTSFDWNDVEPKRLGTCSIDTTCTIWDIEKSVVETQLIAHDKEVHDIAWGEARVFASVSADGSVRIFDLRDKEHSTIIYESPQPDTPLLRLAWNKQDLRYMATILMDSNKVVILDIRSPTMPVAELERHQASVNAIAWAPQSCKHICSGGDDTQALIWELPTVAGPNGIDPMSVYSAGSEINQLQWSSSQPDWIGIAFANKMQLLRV
The test is described as above.

B1: AtMYC1 (MYC related protein1) N-terminally fused to YFP-fragments (protein, UniProt Q8W2F1 1-526)
chain: MSLTMADGVEAAAGRSKRQNSLLRKQLALAVRSVQWSYAIFWSSSLTQPGVLEWGEGCYNGDMKKRKKSYESHYKYGLQKSKELRKLYLSMLEGDSGTTVSTTHDNLNDDDDNCHSTSMMLSPDDLSDEEWYYLVSMSYVFSPSQCLPGRASATGETIWLCNAQYAENKLFSRSLLARSASIQTVVCFPYLGGVIELGVTELISEDHNLLRNIKSCLMEISAHQDNDDEKKMEIKISEEKHQLPLGISDEDLHYKRTISTVLNYSADRSGKNDKNIRHRQPNIVTSEPGSSFLRWKQCEQQVSGFVQKKKSQNVLRKILHDVPLMHTKRMFPSQNSGLNQDDPSDRRKENEKFSVLRTMVPTVNEVDKESILNNTIKYLQELEARVEELESCMGSVNFVERQRKTTENLNDSVLIEETSGNYDDSTKIDDNSGETEQVTVFRDKTHLRVKLKETEVVIEVRCSYRDYIVADIMETLSNLHMDAFSVRSHTLNKFLTLNLKAKFRGAAVASVGMIKRELRRVIGDLF
Take B1: the binding entry in test [1] is “no binding”; with TTG1-YFPC it was “binds”.
